Reference: patent US20080249137A1, “PPAR active compounds” (priority 2005, published 2008)
Some entries share one result that the patent states for a list of compounds.

tested on: T1, at least one of PPARα, PPARγ and PPARδ; assay: PPAR activity assays: biochemical assay of Example 22 or cell based assay of Example 23, result pooled; parameters: species or system human; conditions: either biochemical assay of Example 22 or cell based assay of Example 23; isoform not specified
T1 construct: P332. pET28 PPARA E199-Y468-X / P333. pET28 PPARG E205-Y475-X / P1057. pET BAM6 PPARD G165-Y441-X; fused on or other part: N-terminal His tag on the LBD in the biochemical assay

EC50, ≤ 1000 nM:
CCCOc1cc(CC(=O)O)cc(Oc2cccc(-c3ccc(OCC)cc3)c2)c1 [Compound P-0127, [3-(4′-Ethoxy-biphenyl-3-yloxy)-5-propoxy-phenyl]-acetic acid]
CCOc1cc(CC(=O)O)cc(Oc2cccc(-c3ccc(OC)nc3OC)c2)c1 [Compound P-0091, {3-[3-(2,6-Dimethoxy-pyridin-3-yl)-phenoxy]-5-ethoxy-phenyl}-acetic acid]
CCOc1cc(CC(=O)O)cc(S(=O)(=O)c2ccc(Oc3ccc(C(F)(F)F)cc3)cc2)c1 [Compound P-0029, {3-ethoxy-5-[4-(4-trifluoromethyl-phenoxy)benzenesulfonyl]-phenyl}acetic acid]
CCCOc1cc(CC(=O)O)cc(Oc2cccc(-c3ccc(OC)c(F)c3)c2)c1 [Compound P-0132, [3-(3′-Fluoro-4′-methoxy-biphenyl-3-yloxy)-5-propoxy-phenyl]-acetic acid]
CCCOc1cc(CC(=O)O)cc(S(=O)(=O)c2ccc(Oc3ccc(SC)cc3)cc2)c1 [Compound P-0280, {3-[4-(4-Methylsulfanyl-phenoxy)-benzenesulfonyl]-5-propoxy-phenyl}-acetic acid]
CCCOc1cc(CC(=O)O)cc(Oc2cccc(-c3ccccc3C(F)(F)F)c2)c1 [Compound P-0126, [3-Propoxy-5-(2′-trifluoromethyl-biphenyl-3-yloxy)-phenyl]-acetic acid]
CCCCNC(=O)Nc1ccc(S(=O)(=O)c2cc(CC(=O)O)cc(OCC)c2)cc1 [Compound P-0077, {3-[4-(3-Butyl-ureido)-benzenesulfonyl]-5-ethoxy-phenyl}-acetic acid]
COCCOc1cc(CC(=O)O)cc(Oc2cccc(-c3cnn(CC(C)C)c3)c2)c1 [Compound P-0210, [3-[3-(1-Isobutyl-1H-pyrazol-4-yl)-phenoxy]-5-(2-methoxy-ethoxy)-phenyl]-acetic acid]
CC(C)(C)Oc1ccc(Oc2ccc(S(=O)(=O)c3cc(CC(=O)O)cc(OCC4CC4)c3)cc2)cc1 [Compound P-0275, {3-[4-(4-tert-Butoxy-phenoxy)-benzenesulfonyl]-5-cyclopropylmethoxy-phenyl}-acetic acid]
COCCOc1cc(CC(=O)O)cc(Oc2cccc(-c3ccc(OC)cc3)c2)c1 [Compound P-0220, [3-(4′-Methoxy-biphenyl-3-yloxy)-5-(2-methoxy-ethoxy)-phenyl]-acetic acid]
CCOc1cc(CC(=O)O)cc(S(=O)(=O)c2ccc(Oc3ccc(OC)c(OC)c3)cc2)c1 [Compound P-0115, {3-[4-(3,4-Dimethoxy-phenoxy)-benzenesulfonyl]-5-ethoxy-phenyl}-acetic acid]
O=C(O)Cc1cc(OCC2CC2)cc(S(=O)(=O)c2ccc(Oc3ccc(OC(F)(F)F)cc3)cc2)c1 [Compound P-0277, {3-Cyclopropylmethoxy-5-[4-(4-trifluoromethoxy-phenoxy)-benzenesulfonyl]-phenyl}-acetic acid]
CCCCOc1cc(CC(=O)O)cc(S(=O)(=O)c2ccc(Oc3ccc(OC(F)(F)F)cc3)cc2)c1 [Compound P-0027, {3-butoxy-5-[4-(4-trifluoromethoxy-phenoxy)-benzenesulfonyl]-phenyl}-acetic acid]
CCCOc1cc(CCC(=O)O)cc(S(=O)(=O)c2ccc(Oc3ccc(OC(F)(F)F)cc3)cc2)c1 [Compound P-0158, 3-{3-Propoxy-5-[4-(4-trifluoromethoxy-phenoxy)-benzenesulfonyl]-phenyl}-propionic acid]
CCOc1cc(CC(=O)O)cc(Oc2cccc(-c3cnn(CCC(C)C)c3)c2)c1 [Compound P-0180, (3-Ethoxy-5-{3-[1-(3-methyl-butyl)-1H-pyrazol-4-yl]-phenoxy}-phenyl)-acetic acid]
CCOc1cc(CC(=O)O)cc(S(=O)(=O)c2ccc(Oc3ccc(-n4ccnc4)cc3)cc2)c1 [Compound P-0114, {3-Ethoxy-5-[4-(4-imidazol-1-yl-phenoxy)-benzenesulfonyl]-phenyl}-acetic acid]
CCCOc1cc(CC(=O)OC)cc(S(=O)(=O)c2ccc(Oc3ccc(S(C)(=O)=O)cc3)cc2)c1 [Compound P-0281, {3-[4-(4-Methanesulfonyl-phenoxy)-benzenesulfonyl]-5-propoxy-phenyl}-acetic acidmethyl ester]
CCOc1cc(CC(=O)O)cc(Oc2cccc(-c3ccc(OC)c(F)c3)c2)c1 [Compound P-0090, [3-Ethoxy-5-(3′-fluoro-4′-methoxy-biphenyl-3-yloxy)-phenyl]-acetic acid]
COCCOc1cc(CC(=O)O)cc(S(=O)(=O)c2cccc(-c3ccc(Cl)cc3)c2)c1 [Compound P-0194, [3-(4′-Chloro-biphenyl-3-sulfonyl)-5-(2-methoxy-ethoxy)-phenyl]-acetic acid]
CCOc1ccc(-c2cccc(Oc3cc(CC(=O)O)cc(OCC4CC4)c3)c2)cc1 [Compound P-0165, [3-Cyclopropylmethoxy-5-(4′-ethoxy-biphenyl-3-yloxy)-phenyl]-acetic acid]
CCCOc1cc(CC(=O)O)cc(S(=O)(=O)c2cccc(-c3ccc(OC)nc3)c2)c1 [Compound P-0112, {3-[3-(6-Methoxy-pyridin-3-yl)-benzenesulfonyl]-5-propoxy-phenyl}-acetic acid]
CCOc1cc(CC(=O)O)cc(Oc2cccc(-c3ccc(OC)nc3)c2)c1 [Compound P-0089, {3-ethoxy-5-[3-(6-methoxy-pyridin-3-yl)-phenoxy]-phenyl}-acetic acid]
Cc1nc(-c2ccc(OC(F)(F)F)cc2)oc1S(=O)(=O)c1cccc(CC(=O)O)c1 [Compound P-0288, {3-[4-Methyl-2-(4-trifluoromethoxy-phenyl)-oxazole-5-sulfonyl]-phenyl}-acetic acid]
CCCOc1cc(CC(=O)O)cc(S(=O)(=O)c2cccc(Oc3ccccc3OC)c2)c1 [Compound P-0076, {3-[3-(2-Methoxy-phenoxy)-benzenesulfonyl]-5-propoxy-phenyl}-acetic acid]
CCOc1cc(CC(=O)O)cc(Oc2cccc(-c3ccc(OC(F)(F)F)cc3)c2)c1 [Compound P-0103, [3-Ethoxy-5-(4′-trifluoromethoxy-biphenyl-3-yloxy)-phenyl]-acetic acid]
COCCOc1cc(CC(=O)O)cc(S(=O)(=O)c2cccc(-c3cnn(CC(C)C)c3)c2)c1 [Compound P-0205, [3-[3-(1-Isobutyl-1H-pyrazol-4-yl)-benzenesulfonyl]-5-(2-methoxy-ethoxy)-phenyl]-acetic acid]
CCCOc1cc(CC(=O)O)cc(S(=O)(=O)c2ccc(Oc3ccc(OC(F)(F)F)cc3)cc2)c1 [Compound P-0064, {3-propoxy-5-[4-(4-trifluoromethoxy-phenoxy)-benzenesulfonyl]-phenyl}-acetic acid]
CCOc1cc(CC(=O)O)cc(S(=O)(=O)c2ccc(Cl)c(Cl)c2)c1 [Compound P-0078, [3-(3,4-Dichloro-benzenesulfonyl)-5-ethoxy-phenyl]-acetic acid]
CCCOc1cc(CC(=O)O)cc(Oc2cccc(-c3ccc(OC(F)(F)F)cc3)c2)c1 [Compound P-0129, [3-Propoxy-5-(4′-trifluoromethoxy-biphenyl-3-yloxy)-phenyl]-acetic acid]
CCCOc1cc(CC(=O)O)cc(S(=O)(=O)c2cc(-c3ccc(C(F)(F)F)cc3)c(C)s2)c1 [Compound P-0092, {3-[5-Methyl-4-(4-trifluoromethyl-phenyl)-thiophene-2-sulfonyl]-5-propoxy-phenyl}-acetic acid]
CCCOc1cc(CC(=O)O)cc(S(=O)(=O)c2cccc(-c3cn[nH]c3)c2)c1 [Compound P-0188, {3-Propoxy-5-[3-(1H-pyrazol-4-yl)-benzenesulfonyl]-phenyl}-acetic acid]
CCOc1ccc(-c2cccc(Oc3cc(CC(=O)O)cc(OCC)c3)c2)cc1 [Compound P-0087, [3-Ethoxy-5-(4′-ethoxy-biphenyl-3-yloxy)-phenyl]-acetic acid]
CCOc1cc(CC(=O)O)cc(S(=O)(=O)c2cccc(-c3ccccc3OC)c2)c1 [Compound P-0134, [3-Ethoxy-5-(2′-methoxy-biphenyl-3-sulfonyl)-phenyl]-acetic acid]
CCCOc1cc(CC(=O)O)cc(S(=O)(=O)c2cccc(-c3ccc(F)c(Cl)c3)c2)c1 [Compound P-0108, [3-(3′-Chloro-4′-fluoro-biphenyl-3-sulfonyl)-5-propoxy-phenyl]-acetic acid]
CCCOc1cc(CC(=O)O)cc(S(=O)(=O)c2cccc(-c3ccc(OC)cc3)c2)c1 [Compound P-0107, [3-(4′-Methoxy-biphenyl-3-sulfonyl)-5-propoxy-phenyl]-acetic acid]
CCCOc1cc(CC(=O)O)cc(S(=O)(=O)c2cccc(-c3ccccc3C(F)(F)F)c2)c1 [Compound P-0109, [3-Propoxy-5-(2′-trifluoromethyl-biphenyl-3-sulfonyl)-phenyl]-acetic acid]
CCCOc1cc(CC(=O)O)cc(S(=O)(=O)c2ccc(OC)cc2)c1 [Compound P-0056, [3-(4-Methoxy-benzenesulfonyl)-5-propoxy-phenyl]-acetic acid]
O=C(O)Cc1cc(OCC2CC2)cc(Oc2cccc(-c3ccccc3C(F)(F)F)c2)c1 [Compound P-0164, [3-Cyclopropylmethoxy-5-(2′-trifluoromethyl-biphenyl-3-yloxy)-phenyl]-acetic acid]
CCCCOc1cc(CC(=O)O)cc(S(=O)(=O)c2ccccc2)c1 [Compound P-0011, (3-Benzenesulfonyl-5-butoxy-phenyl)-acetic acid]
CCCOc1cc(CC(=O)O)cc(S(=O)(=O)c2cccc(Oc3ccc(C(F)(F)F)cc3)c2)c1 [Compound P-0074, {3-Propoxy-5-[3-(4-trifluoromethyl-phenoxy)-benzenesulfonyl]-phenyl}-acetic acid]
